This note sets out measurements from PMC12564449, “Multifaceted Biological Activity of Selected Flavone C-Monoglucosides” (International Journal of Molecular Sciences, 2025).

Structures are written as SMILES. Some compounds share one wording; it may come from a single statement.

The data set in a line: Differential pulse voltammetry: anodic peak potentials and antioxidant activity. The settings on record: classification proposed by Blasco et al. [60], from Ep. It counts as physicochemical. The protocol:
Electrochemical measurements were performed at room temperature (25 ± 2 °C) in a small-volume electrochemical cell using a potentiostat type SP-240 (BioLogic Science Instruments, Seyssinet-Pariset, France) controlled by EC-Lab V11.36 software. Differential pulse voltammograms were obtained with a pulse amplitude of 100 mV, a potential step of 5 mV, and a modulation time of 0.2 s. Four scans were registered for each sample, and the reported data correspond to the average of at least three replicates. The working electrode was a glassy carbon electrode, GCE (3 mm diameter, BASi M-2012, and the auxiliary and reference electrodes were platinum wire (BASi MW-1033) and Ag/AgCl (3 M KCl, BASi-MW-2052). All potentials are quoted against the used reference electrode. Before each scan, the surface of the glassy carbon electrode was polished on a polishing cloth with 0.05 μm alumina paste and ultrasonically rinsed in deionized water. After polishing, the electrode was washed with ultrapure water and dried with absorbent paper. DPV measurements were carried out in a standard solution of flavone C-monoglucosides and quercetin at a final concentration of 250 μM. Before measurements, the standard solutions were diluted in 0.2 M acetate-acetic buffer (in 80% methanol) at pH 5.0 (v/v: 1:1). Buffer solution also served as a supporting electrolyte. For the test purpose, from registered DPV voltammograms, the anodic oxidation potentials (Epa) in mV and the integrated area under anodic peaks in μA were determined.
Regarding `O=c1c(O)c(-c2ccc(O)c(O)c2)oc2cc(O)cc(O)c12` [Quercetin (Q), 3,3′,4′,5,7-pentahydroxyflavone, reference compound], the “antioxidant power class by first oxidation potential” value (“antioxidant power class” below) was “high antioxidant power (high antioxidant power (Ep < 0.4 V))”.

As for `O=c1cc(-c2ccc(O)cc2)oc2c([C@@H]3O[C@H](CO)[C@@H](O)[C@H](O)[C@H]3O)c(O)cc(O)c12` [Vitexin (VT), 4′,5,7-trihydroxyflavone-8-glucoside], the “antioxidant power class” value is “low antioxidant power (low antioxidant power (0.8 V < Ep < 1.3 V))”.

For `O=c1cc(-c2ccc(O)c(O)c2)oc2c([C@@H]3O[C@H](CO)[C@@H](O)[C@H](O)[C@H]3O)c(O)cc(O)c12` [Orientin (OR), 3′,4′,5,7-tetrahydroxyflavone-8-glucoside], the “antioxidant power class” value was “high antioxidant power (high antioxidant power (Ep < 0.4 V))”.

`O=c1cc(-c2ccc(O)c(O)c2)oc2cc(O)c([C@@H]3O[C@H](CO)[C@@H](O)[C@H](O)[C@H]3O)c(O)c12` [Homoorientin (hOR), 3′,4′,5,7-tetrahydroxyflavone-6-glucoside]: the “antioxidant power class” value was “high antioxidant power (high antioxidant power (Ep < 0.4 V))”.

Turning to `O=c1cc(-c2ccc(O)cc2)oc2cc(O)c([C@@H]3O[C@H](CO)[C@@H](O)[C@H](O)[C@H]3O)c(O)c12` [Isovitexin (iVT), 4′,5,7-trihydroxyflavone-6-glucoside], the “antioxidant power class” value was “low antioxidant power (low antioxidant power (0.8 V < Ep < 1.3 V))”.
